PubChem BioAssay AID1671195 | Yale University | 2021

- Screen: 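Knockdowns that increase or decrease uptake of fluorescent LDL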 (primary screen)
- Cells: human Huh7 hepatoma cells
- Reagents: siRNA pool against human genes, 18 nM
- Time to read-out: about 2 to 2.5 days of knockdown, then 8 h LDL uptake
- Conditions: DiI-labelled LDL at 30 µg/ml for 8 h, in lipoprotein-deficient serum medium
- Measured: 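Per-cell DiI-LDL intensity by automated imaging; well means scaled to the plate median and given as a robust z-score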
- Scale: robust z-score: higher = more LDL uptake after knockdown
- Hit rule: 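a gene counts as active if at least two replicate z-scores exceed ±2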
The deposit covers about 22,000 reagents; shown is a random part of them. About 1,510 of all reagents (6.9%) count as active. 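Active includes knockdowns raising or lowering LDL uptake; positive z-scores mean more uptake, negative mean less.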

gene,"robust z-score, replicate 1","robust z-score, replicate 2","robust z-score, replicate 3",call
PITPNB (GeneID 23760),-1.58,-2.27,-2.22,active
OR10A6 (GeneID 390093),1.68,1.79,1.23,inactive
SDR16C5 (GeneID 195814),0.51,0.181,-0.0249,inactive
GIPC2 (GeneID 54810),1.08,1.18,0.722,inactive
PATL1 (GeneID 219988),0.0558,-0.011,0.0251,inactive
MAGOH (GeneID 4116),2.37,1.34,0.853,inactive
LOC391241 (retired record) (GeneID 391241),-0.885,-0.515,-0.991,inactive
C1orf122 (GeneID 127687),0.344,0.524,0.176,inactive
LOC387994 (retired record) (GeneID 387994),0.818,0.877,0.939,inactive
MFAP2 (GeneID 4237),0.00996,0.075,-0.763,inactive
SBK1 (GeneID 388228),-0.787,-1.11,-1.52,inactive
SNTB1 (GeneID 6641),1.22,0.0949,0.942,inactive
ADAM17 (GeneID 6868),0.22,0.3,0.263,inactive
OR8B8 (GeneID 26493),-1.65,-1.3,-1.25,inactive
CNP (GeneID 1267),1.33,-0.449,0.932,inactive
OR6X1 (GeneID 390260),0.227,0.327,0.206,inactive
ZMAT3 (GeneID 64393),-0.484,-0.475,-0.64,inactive
MRPL12 (GeneID 6182),-0.474,0.961,2.15,inactive
NANOS2 (GeneID 339345),2.41,2.87,2.32,active
STARD10 (GeneID 10809),0.705,0.719,0.0517,inactive
DPY19L2P4 (GeneID 442523),0.313,0.355,0.335,inactive
LOC440851 (retired record) (GeneID 440851),-0.135,-0.529,-0.418,inactive
METTL23 (GeneID 124512),-0.677,-0.394,0.778,inactive
CLCA3P (GeneID 9629),-1.51,-1.07,-1.79,inactive
LOC440391 (retired record) (GeneID 440391),0.34,0.0701,0.178,inactive
CHST7 (GeneID 56548),0.0895,0.33,-0.233,inactive
RPL30 (GeneID 6156),-1.09,-1.3,-0.634,inactive
GABARAP (GeneID 11337),1.68,1.11,0.662,inactive
SASS6 (GeneID 163786),1.79,2.14,2.19,active
IGSF3 (GeneID 3321),-1.29,-1.02,-1.17,inactive
RPUSD4 (GeneID 84881),-0.508,-0.488,-0.48,inactive
ELOVL2 (GeneID 54898),0.558,0.576,0.796,inactive
EEF1AKMT1 (GeneID 221143),-0.203,-0.285,-0.254,inactive
LOC442148 (retired record) (GeneID 442148),2.28,1.75,1.46,inactive
CRYBG1 (GeneID 202),-0.242,-1.62,-1.15,inactive
CEBPA (GeneID 1050),-0.976,-0.703,1.16,inactive
FBXO48 (GeneID 554251),-0.869,-1.14,-0.867,inactive
HEBP1 (GeneID 50865),1.16,-1.26,0.84,inactive
PKD2L1 (GeneID 9033),0.208,-0.366,0.388,inactive
BPIFA4P (GeneID 317716),-0.796,-0.695,-0.747,inactive
HDAC7 (GeneID 51564),0.4,0.35,1.9,inactive
SSX2IP (GeneID 117178),-0.0421,-0.306,-0.954,inactive
PIP4K2C (GeneID 79837),2.52,-0.0839,0.0392,inactive
USP17L2 (GeneID 377630),-1.42,-1.41,-1.45,inactive
CSRNP3 (GeneID 80034),0.822,1.08,1.18,inactive
ACTA1 (GeneID 58),-0.676,-0.267,-0.0705,inactive
PPP2R3B (GeneID 28227),2.25,2.43,1.87,active
LOC441599 (retired record) (GeneID 441599),-0.686,0.335,0.272,inactive
GLI2 (GeneID 2736),-0.595,-0.0316,-0.207,inactive
NRG3 (GeneID 10718),-0.676,0.0621,-1.4,inactive
LOC442174 (retired record) (GeneID 442174),-0.0106,0.0489,0.246,inactive
IRGM (GeneID 345611),1.25,0.687,1.55,inactive
LOC440025 (retired record) (GeneID 440025),-1.18,-0.445,-1.35,inactive
EEF1A1P35 (GeneID 389223),1.78,2.1,1.13,inactive
CC2D1B (GeneID 200014),0.589,0.538,1.1,inactive
ARFGEF1 (GeneID 10565),-0.53,-0.365,-1.21,inactive
RBM22 (GeneID 55696),-0.873,-0.708,-1.25,inactive
IFI35 (GeneID 3430),-0.617,0.482,-0.878,inactive
LOC137829 (retired record) (GeneID 137829),-1.86,-1.12,-1.41,inactive
RBM26 (GeneID 64062),-0.559,-0.173,-0.47,inactive
MYCL (GeneID 4610),-1.23,-1.33,-0.767,inactive
WFIKKN2 (GeneID 124857),1.24,1.33,1.34,inactive
TXNL1 (GeneID 9352),1.69,1.29,0.612,inactive
C2orf66 (GeneID 401027),0.467,0.664,0.369,inactive
AGR2 (GeneID 10551),0.548,0.705,0.702,inactive
GPD2 (GeneID 2820),-0.309,-0.576,-0.266,inactive
RNF113B (GeneID 140432),-0.488,-1.71,0.266,inactive
PCED1B (GeneID 91523),0.399,0.747,0.843,inactive

Entries above called active:
gene,"robust z-score, replicate 1","robust z-score, replicate 2","robust z-score, replicate 3",call
PITPNB (GeneID 23760),-1.58,-2.27,-2.22,active
NANOS2 (GeneID 339345),2.41,2.87,2.32,active
SASS6 (GeneID 163786),1.79,2.14,2.19,active
PPP2R3B (GeneID 28227),2.25,2.43,1.87,active
